Experimental data as given in paper doi:10.1101/2021.08.23.457352.
Results are given in words; binding and its absence hold for the method and conditions named. Some entries that bind do so weakly or less than the wild type. Sequences can lack the tags named with a protein.

Target: T1, GFP-prescission-Hse1 (yeast) (UniProt P38753)
T1 sequence: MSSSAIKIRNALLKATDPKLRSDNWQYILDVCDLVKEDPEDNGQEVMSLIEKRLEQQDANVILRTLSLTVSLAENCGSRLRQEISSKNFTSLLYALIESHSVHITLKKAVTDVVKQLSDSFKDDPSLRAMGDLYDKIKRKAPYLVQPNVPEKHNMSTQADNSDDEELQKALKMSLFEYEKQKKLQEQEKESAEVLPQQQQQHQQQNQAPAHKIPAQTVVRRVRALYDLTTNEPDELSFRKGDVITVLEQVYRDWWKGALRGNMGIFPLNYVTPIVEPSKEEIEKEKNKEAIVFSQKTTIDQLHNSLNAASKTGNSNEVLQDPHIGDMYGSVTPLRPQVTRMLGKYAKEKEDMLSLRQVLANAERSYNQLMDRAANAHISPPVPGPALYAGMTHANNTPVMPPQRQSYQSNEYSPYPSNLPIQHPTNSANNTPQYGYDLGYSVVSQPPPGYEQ
Assay: co-purification

B1: Vps27 (expressed in S. cerevisiae under a GAL promoter) (protein, UniProt P40343 1-622)
chain: MSVSTPSELDALIEQATSESIPNGDLDLPIALEISDVLRSRRVNPKDSMRCIKKRILNTADNPNTQLSSWKLTNICVKNGGTPFIKEICSREFMDTMEHVILREDSNEELSELVKTILYELYVAFKNDSQLNYVAKVYDKLISRGIKFPEKLTLSNSPTAMFDSKTPADWIDSDACMICSKKFSLLNRKHHCRSCGGVFCQEHSSNSIPLPDLGIYEPVRVCDSCFEDYDLKRHDDSKKSKKHRHKRKKDRDYSTPEDEEELIRKAIELSLKESRNSASSEPIVPVVESKNEVKRQEIEEEEDPDLKAAIQESLREAEEAKLRSERQKASRQMQPQQPSPQPQPIHSVDLSDEEKDSIYMFASLVEKMKSRPLNEILEDSKLQNLAQRVFASKARLNYALNDKAQKYNTLIEMNGKISEIMNIYDRLLEQQLQSINLSQQYTLPQVPSDPYNYLTENVQNPAESYQTPPLQQLSSHQYKPQQDVSRQQSVKANSSPTTNIDHLKTIDVTPHAQQKPQSHVELAPSDPPYPKEEAEDEGTQAVQDEESSTQESRERPYPVETENGETSINKRPQGITRYDFPTVPARKFVQPESTVPLPASSSEIPIKEERPPSPQEELLIEL
**Q.** B1 was tested. Which binding did it give?
**A.** Its binding is “binds”.
